Data from the supplement of paper PMC12823440, “Inhibitors supercharge kinase turnover through native proteolytic circuits” (Nature, 2025).
Some of the results follow. Hit calls seldom repeat between salt and free forms of one compound.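 Kinases were expressed as nanoluciferase fusions in K562 cells and luminescence was read every 4 h between 2 and 18 h as percent of control, DMSO set to 100% and a positive control to 0%. A time point counts as decreased when the signal drops significantly (2 sigma). The hit call is the authors' own, does not follow from the count of time points alone, and its rule is not shown.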

Chains of the proteins cited; added tags and fusions are not shown. Lines headed by an entry give the natural chain unless they say otherwise; changes in a name come on top.
UniProt P07947, whole entry, looked up: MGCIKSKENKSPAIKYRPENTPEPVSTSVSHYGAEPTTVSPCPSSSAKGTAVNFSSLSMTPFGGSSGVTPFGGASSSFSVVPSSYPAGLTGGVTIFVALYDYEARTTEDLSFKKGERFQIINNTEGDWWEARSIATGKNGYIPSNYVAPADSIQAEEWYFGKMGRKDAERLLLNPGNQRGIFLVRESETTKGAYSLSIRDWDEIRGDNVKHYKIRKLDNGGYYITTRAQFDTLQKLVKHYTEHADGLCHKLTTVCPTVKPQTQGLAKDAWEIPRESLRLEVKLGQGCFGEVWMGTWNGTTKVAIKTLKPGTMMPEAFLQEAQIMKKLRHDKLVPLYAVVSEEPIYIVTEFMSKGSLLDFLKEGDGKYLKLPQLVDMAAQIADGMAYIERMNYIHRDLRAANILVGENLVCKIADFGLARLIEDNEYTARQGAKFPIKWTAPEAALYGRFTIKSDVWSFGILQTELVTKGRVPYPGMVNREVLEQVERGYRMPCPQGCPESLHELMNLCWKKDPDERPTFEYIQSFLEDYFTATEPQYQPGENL
UniProt P43403: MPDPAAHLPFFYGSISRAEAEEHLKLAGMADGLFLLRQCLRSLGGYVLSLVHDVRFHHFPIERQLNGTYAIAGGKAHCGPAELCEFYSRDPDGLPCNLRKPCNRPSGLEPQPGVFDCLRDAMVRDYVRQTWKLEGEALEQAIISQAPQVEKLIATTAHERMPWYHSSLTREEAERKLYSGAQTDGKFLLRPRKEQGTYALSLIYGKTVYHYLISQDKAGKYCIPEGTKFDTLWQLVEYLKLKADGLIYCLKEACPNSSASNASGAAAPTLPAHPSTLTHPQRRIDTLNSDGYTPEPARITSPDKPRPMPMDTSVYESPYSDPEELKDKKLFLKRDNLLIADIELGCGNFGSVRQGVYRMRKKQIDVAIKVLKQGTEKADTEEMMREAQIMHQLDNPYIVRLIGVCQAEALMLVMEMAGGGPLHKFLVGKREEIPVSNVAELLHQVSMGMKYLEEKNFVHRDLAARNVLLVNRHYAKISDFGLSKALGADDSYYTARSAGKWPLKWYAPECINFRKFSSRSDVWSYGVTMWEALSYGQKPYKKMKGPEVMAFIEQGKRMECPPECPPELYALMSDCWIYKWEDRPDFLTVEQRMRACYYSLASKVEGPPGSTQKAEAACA
UniProt P11802: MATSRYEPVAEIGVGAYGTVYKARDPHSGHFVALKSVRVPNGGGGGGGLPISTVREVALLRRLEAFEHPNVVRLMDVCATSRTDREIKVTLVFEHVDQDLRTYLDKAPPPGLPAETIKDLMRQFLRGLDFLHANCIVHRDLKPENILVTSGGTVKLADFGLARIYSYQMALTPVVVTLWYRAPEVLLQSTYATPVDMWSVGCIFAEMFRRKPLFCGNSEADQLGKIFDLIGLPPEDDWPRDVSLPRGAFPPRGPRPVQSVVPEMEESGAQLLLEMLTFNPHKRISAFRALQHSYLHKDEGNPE
UniProt P50613: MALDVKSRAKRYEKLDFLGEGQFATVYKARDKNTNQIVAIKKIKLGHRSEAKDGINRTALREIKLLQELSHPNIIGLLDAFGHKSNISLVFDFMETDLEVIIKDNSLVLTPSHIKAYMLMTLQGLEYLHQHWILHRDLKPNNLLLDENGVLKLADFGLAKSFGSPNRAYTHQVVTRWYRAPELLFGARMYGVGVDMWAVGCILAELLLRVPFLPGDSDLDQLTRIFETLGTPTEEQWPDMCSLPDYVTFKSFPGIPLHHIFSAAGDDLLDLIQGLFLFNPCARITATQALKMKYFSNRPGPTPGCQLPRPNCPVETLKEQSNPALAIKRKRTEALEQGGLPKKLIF
UniProt P50750, whole entry: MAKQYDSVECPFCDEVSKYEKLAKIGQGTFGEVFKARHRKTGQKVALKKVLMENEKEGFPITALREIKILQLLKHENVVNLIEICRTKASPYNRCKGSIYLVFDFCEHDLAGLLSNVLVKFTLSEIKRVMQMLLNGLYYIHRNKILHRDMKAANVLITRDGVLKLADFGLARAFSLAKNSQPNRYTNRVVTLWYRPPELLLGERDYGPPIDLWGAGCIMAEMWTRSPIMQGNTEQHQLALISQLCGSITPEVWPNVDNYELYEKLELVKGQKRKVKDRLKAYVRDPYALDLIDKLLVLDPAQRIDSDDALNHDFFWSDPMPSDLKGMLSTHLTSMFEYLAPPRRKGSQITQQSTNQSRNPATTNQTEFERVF

Tests used:
Settings in all cases: K562; 2-18 h
[1] = molecular target: YES1 (UniProt P07947); assay: number of time points (of 5) at which kinase-Nluc abundance scored as decreased, DMSO-normalised (count); higher = more persistent destabilization
[2] = molecular target: ZAK (UniProt Q9NYL2); assay: as above
[3] = molecular target: ZAP70 (UniProt P43403); assay: as above
[4] = molecular target: CDK4 (UniProt P11802); assay: number of time points (of 4; 2 h point missing) at which kinase-Nluc abundance scored as decreased, DMSO-normalised (count); higher = more persistent destabilization
[5] = molecular target: CDK7 (UniProt P50613); assay: as above
[6] = molecular target: CDK9 (UniProt P50750); assay: as above

SMILES | number of time points [1] | number of time points [2] | number of time points [3] | number of time points [4] | number of time points [5] | number of time points [6]
COc1cc(N2CCC(N(C)C)CC2)ccc1Nc1ncc(Cl)c(Nc2ccccc2P(C)(C)=O)n1 (2.5 µM) | 0 | 0 | 0 | 0 | 1 | 0
Cn1cc(-c2ccc3nnc(C(F)(F)c4ccc5ncccc5c4)n3n2)cn1 (10 µM) | 0 | 0 | 0 | 0 | 0 | 0
CC1=C(CC(=O)O)c2cc(F)ccc2/C1=C\c1ccc(C(C)C)cc1 (10 µM) | 0 | 0 | 0 | 0 | 0 | 0
Cc1nc(NC(=O)NCCc2nnn(CCF)n2)sc1-c1ccc(S(C)(=O)=O)c(F)c1 (10 µM) | 0 | 0 | 0 | 0 | 0 | 0
CC(CCc1ccccn1)(CCc1ccccn1)C(=O)c1ccccc1 (10 µM) | 0 | 0 | 0 | 0 | 0 | 0
COc1cc(C(=O)N2CCC(N3CCN(C)CC3)CC2)ccc1Nc1ncc2c(n1)N(C)c1ccccc1C(=O)N2C (10 µM) | 0 | 0 | 0 | 0 | 0 | 0
C=CC(=O)Nc1cccc(-n2c(=O)cc(C)c3cnc(Nc4ccc(OCCN(C)C)cc4OC)nc32)c1 (10 µM) | 0 | 0 | 0 | 0 | 0 | 0
C[C@@H]1COCCN1c1cc(C2([S@](C)(=N)=O)CC2)nc(-c2cc[nH]c3nccc2-3)n1 [Ceralasertib] (2.5 µM) | 0 | 0 | 0 | 0 | 0 | 0
Oc1ccccc1C(=S)N1CCCC1 (10 µM) | 0 | 0 | 0 | 0 | 0 | 0
COc1nc(-c2cccc3c2OCCO3)ccc1Nc1ccc(CN(C)C)cc1 [RAS inhibitor Abd-7] (10 µM) | 0 | 0 | 0 | 0 | 0 | 0
COc1ccc2c(c1OC)OC1c3ccc(O)cc3OCC21 (configuration not stated) [Methylnissolin] (10 µM) | 0 | 0 | 0 | 0 | 0 | 0
CCN(C)C(=O)c1ccc2c(C(=Nc3ccc(CN4CCCCC4)cc3)c3ccccc3)c(O)[nH]c2c1 (2.5 µM) | 0 | 0 | 0 | 0 | 0 | 0
COc1ccccc1/C=C1\C(=O)Nc2ccccc21 (10 µM) | 0 | 0 | 0 | 0 | 0 | 0
C[C@@H]1O[C@@H](OC[C@H]2O[C@@H](Oc3cc(O)c4c(c3)O[C@H](c3ccc(O)cc3)CC4=O)[C@H](O)[C@@H](O)[C@@H]2O)[C@H](O)[C@H](O)[C@H]1O [Narirutin] (10 µM) | 0 | 0 | 0 | 0 | 0 | 0
Cn1cc(-c2cc3c(N4CCN(c5ncc([C@@](C)(N)c6ccc(F)cc6)cn5)CC4)ncnn3c2)cn1 [Avapritinib] (2.5 µM) | 0 | 0 | 0 | 0 | 0 | 0
CCc1c(C)sc(NC(=S)NC(=O)c2ccc(Cl)cc2)c1C(N)=O (10 µM) | 0 | 0 | 0 | 0 | 0 | 0
C[C@@H]1C[C@H]2O[C@@]3(O[C@@H]2C(C)(C)O)[C@H](O)[C@@]2(C)[C@@H]4CC[C@H]5C(C)(C)[C@@H](O[C@@H]6OC[C@H](O)[C@H](O)[C@H]6O)CC[C@@]56C[C@@]46CC[C@]2(C)[C@@H]13 [Cimiracemoside C] (10 µM) | 0 | 0 | 0 | 0 | 0 | 0
O=C(CO)N1CCC(c2n[nH]c(-c3ccc(Cl)cc3)c2-c2ccncn2)CC1 (10 µM) | 0 | 0 | 0 | 0 | 0 | 0
CC[C@@H]1C(=O)N(C)c2cnc(Nc3ccc(C(=O)N[C@H]4CC[C@H](N5CCN(CC6CC6)CC5)CC4)cc3OC)nc2N1C(C)C [Volasertib] (2.5 µM) | 0 | 0 | 0 | 0 | 0 | 0
CCc1cccc(CC)c1NC(=O)c1nn(C)c2c1CCc1cnc(Nc3ccc(C(=O)NC4CCN(C)CC4)cc3OC(F)(F)F)nc1-2 (2 µM) | 0 | 0 | 0 | 0 | 0 | 0
O=c1ccc2ccc(O)c(O)c2o1 [Daphnetin] (10 µM) | 0 | 0 | 0 | 0 | 0 | 0
Cn1cc(-c2ccc(F)c(C(F)(F)F)c2)nc1C1CCN(c2ncnc3[nH]ncc23)CC1 (10 µM) | 0 | 0 | 0 | 0 | 0 | 0
CCOC(=O)c1c2c3c(cccc3[nH]c1=O)C(=O)c1ccccc1-2 (10 µM) | 0 | 0 | 0 | 0 | 0 | 0
O=C(NOCCO)c1ccc2cncn2c1Nc1ccc(I)cc1F (10 µM) | 0 | 0 | 0 | 0 | 0 | 0
CC1(N)CCN(c2cnc3c(-c4cccc(Cl)c4Cl)[nH]nc3n2)CC1 (2.5 µM) | 0 | 0 | 0 | 0 | 0 | 0
COc1cc2ncnc(Nc3ccc(NC(=O)c4ccccc4)cc3)c2cc1OC [Aurora kinase inhibitor-2] (2.5 µM) | 0 | 0 | 0 | 0 | 0 | 0
Nc1n[nH]c2cc(-c3ccc(=O)n(Cc4cccc(Cl)c4)c3)ccc12 (10 µM) | 0 | 0 | 0 | 0 | 0 | 0

An excerpt from above with just number of time points [1], number of time points [4] and number of time points [3]:
SMILES | number of time points [1] | number of time points [4] | number of time points [3]
CCc1cccc(CC)c1NC(=O)c1nn(C)c2c1CCc1cnc(Nc3ccc(C(=O)NC4CCN(C)CC4)cc3OC(F)(F)F)nc1-2 (2 µM) | 0 | 0 | 0
O=c1ccc2ccc(O)c(O)c2o1 [Daphnetin] (10 µM) | 0 | 0 | 0
